Values of other authors, collected in publication PMC6968775, “Assessment of contribution of BCRP to intestinal absorption of various drugs using portal‐systemic blood concentration difference model in mice” (Pharmacology Research & Perspectives, 2020).

How the values were obtained:
[1] = system: BCRP; details: Caco‐2 permeability study; ref (10); Kawahara et al, manuscript in revision; cited from earlier work
[2] = system: P‐gp; details: Caco‐2 permeability study; unpublished data; ref Fujita et al, manuscript in preparation; cited from earlier work

O=C(O)c1cn(C2CC2)c2cc(N3CCNCC3)c(F)cc2c1=O [ciprofloxacin, Ciprofloxacin]
AQbcrp in vitro (Caco‐2) [1]: 0.03 | AQp‐gp in vitro (Caco‐2) [2]: 0.13
